Results deposited as PubChem BioAssay AID1508597 (Cure First, 2020)

- Screen: 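Genes whose silencing sensitises or protects ovarian cancer cells against rucaparib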 (primary screen)
- System: human ovarian carcinoma lines grown from tumours: OCI-P5x (papillary serous) and OCI-C5x (clear cell)
- Reagents: siRNA pool against human genes, 1.25 pmol siRNA per well
- Duration: 72 h or 96 h, depending on the cell culture
- Treatment: rucaparib 20 µM (about IC30) or vehicle, present until read-out
- Detection: 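Luminescent ATP-based viability assay read 72 or 96 h after transfection, depending on culture, given as normalised percent viability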
- Reading the numbers: viability, normalised: higher = more viable cells remaining
- Call rule: 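Active when normalised viability falls below 80 percent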
- Meaning of the calls: active = viability under 80%; inactive = viability 80% or more
This is one part, drawn at random, of about 2,100 reagents. 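Calls flag viability under 80% in either arm, not effects specific to rucaparib; the reference for percent is not stated.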 A reagent listed more than once was tested more than once; the source does not tell the runs apart. Reagent sequences are not shown. Not given: the 100% reference.

"viability, normalised (%)",call,Target gene,rucaparib or vehicle,cell line,technical replicate
50.4,active,CDKL2 (cyclin dependent kinase like 2),Rucaparib,OCI-C5x (clear cell),1
56.6,active,CDKL2 (cyclin dependent kinase like 2),Rucaparib,OCI-C5x (clear cell),2
55,active,CDKL2 (cyclin dependent kinase like 2),Rucaparib,OCI-C5x (clear cell),3
121,inactive,CDKL2 (cyclin dependent kinase like 2),Rucaparib,OCI-P5x (serous),1
68.9,active,CDKL2 (cyclin dependent kinase like 2),Rucaparib,OCI-P5x (serous),2
114,inactive,CDKL2 (cyclin dependent kinase like 2),Rucaparib,OCI-P5x (serous),3
102,inactive,CDKL2 (cyclin dependent kinase like 2),Vehicle,OCI-C5x (clear cell),1
70.2,active,CDKL2 (cyclin dependent kinase like 2),Vehicle,OCI-C5x (clear cell),2
66.2,active,CDKL2 (cyclin dependent kinase like 2),Vehicle,OCI-C5x (clear cell),3
98,inactive,CDKL2 (cyclin dependent kinase like 2),Vehicle,OCI-P5x (serous),1
85.1,inactive,CDKL2 (cyclin dependent kinase like 2),Vehicle,OCI-P5x (serous),2
98.2,inactive,CDKL2 (cyclin dependent kinase like 2),Vehicle,OCI-P5x (serous),3
56.1,active,NFRKB (nuclear factor related to kappaB binding protein),Rucaparib,OCI-C5x (clear cell),1
47.6,active,NFRKB (nuclear factor related to kappaB binding protein),Rucaparib,OCI-C5x (clear cell),2
46.8,active,NFRKB (nuclear factor related to kappaB binding protein),Rucaparib,OCI-C5x (clear cell),3
48.7,active,NFRKB (nuclear factor related to kappaB binding protein),Rucaparib,OCI-P5x (serous),1
63,active,NFRKB (nuclear factor related to kappaB binding protein),Rucaparib,OCI-P5x (serous),2
64.2,active,NFRKB (nuclear factor related to kappaB binding protein),Rucaparib,OCI-P5x (serous),3
61.5,active,NFRKB (nuclear factor related to kappaB binding protein),Vehicle,OCI-C5x (clear cell),1
44.2,active,NFRKB (nuclear factor related to kappaB binding protein),Vehicle,OCI-C5x (clear cell),2
63.8,active,NFRKB (nuclear factor related to kappaB binding protein),Vehicle,OCI-C5x (clear cell),3
61,active,NFRKB (nuclear factor related to kappaB binding protein),Vehicle,OCI-P5x (serous),1
70.8,active,NFRKB (nuclear factor related to kappaB binding protein),Vehicle,OCI-P5x (serous),2
89.5,inactive,NFRKB (nuclear factor related to kappaB binding protein),Vehicle,OCI-P5x (serous),3
47.2,active,DHFR (dihydrofolate reductase),Rucaparib,OCI-C5x (clear cell),1
44.9,active,DHFR (dihydrofolate reductase),Rucaparib,OCI-C5x (clear cell),2
51.8,active,DHFR (dihydrofolate reductase),Rucaparib,OCI-C5x (clear cell),3
75.7,active,DHFR (dihydrofolate reductase),Rucaparib,OCI-P5x (serous),1
106,inactive,DHFR (dihydrofolate reductase),Rucaparib,OCI-P5x (serous),2
90.1,inactive,DHFR (dihydrofolate reductase),Rucaparib,OCI-P5x (serous),3
51.4,active,DHFR (dihydrofolate reductase),Vehicle,OCI-C5x (clear cell),1
63.5,active,DHFR (dihydrofolate reductase),Vehicle,OCI-C5x (clear cell),2
47.8,active,DHFR (dihydrofolate reductase),Vehicle,OCI-C5x (clear cell),3
75,active,DHFR (dihydrofolate reductase),Vehicle,OCI-P5x (serous),1
73.7,active,DHFR (dihydrofolate reductase),Vehicle,OCI-P5x (serous),2
72.1,active,DHFR (dihydrofolate reductase),Vehicle,OCI-P5x (serous),3
59.8,active,ASCC3 (activating signal cointegrator 1 complex subunit 3),Rucaparib,OCI-C5x (clear cell),1
39.1,active,ASCC3 (activating signal cointegrator 1 complex subunit 3),Rucaparib,OCI-C5x (clear cell),2
54.7,active,ASCC3 (activating signal cointegrator 1 complex subunit 3),Rucaparib,OCI-C5x (clear cell),3
65.2,active,ASCC3 (activating signal cointegrator 1 complex subunit 3),Rucaparib,OCI-P5x (serous),1
75.6,active,ASCC3 (activating signal cointegrator 1 complex subunit 3),Rucaparib,OCI-P5x (serous),2
70.5,active,ASCC3 (activating signal cointegrator 1 complex subunit 3),Rucaparib,OCI-P5x (serous),3
35.4,active,ASCC3 (activating signal cointegrator 1 complex subunit 3),Vehicle,OCI-C5x (clear cell),1
41.3,active,ASCC3 (activating signal cointegrator 1 complex subunit 3),Vehicle,OCI-C5x (clear cell),2
45.3,active,ASCC3 (activating signal cointegrator 1 complex subunit 3),Vehicle,OCI-C5x (clear cell),3
64.3,active,ASCC3 (activating signal cointegrator 1 complex subunit 3),Vehicle,OCI-P5x (serous),1
84.8,inactive,ASCC3 (activating signal cointegrator 1 complex subunit 3),Vehicle,OCI-P5x (serous),2
81.4,inactive,ASCC3 (activating signal cointegrator 1 complex subunit 3),Vehicle,OCI-P5x (serous),3

Part of the list above, set out differently.
{"Target gene": "CDKL2 (cyclin dependent kinase like 2)", "rucaparib or vehicle": "Vehicle", "cell line": "OCI-P5x (serous)", "technical replicate": "3", "viability, normalised (%)": 98.2, "call": "inactive"}
{"Target gene": "NFRKB (nuclear factor related to kappaB binding protein)", "rucaparib or vehicle": "Rucaparib", "cell line": "OCI-C5x (clear cell)", "technical replicate": "1", "viability, normalised (%)": 56.1, "call": "active"}
{"Target gene": "NFRKB (nuclear factor related to kappaB binding protein)", "rucaparib or vehicle": "Rucaparib", "cell line": "OCI-C5x (clear cell)", "technical replicate": "2", "viability, normalised (%)": 47.6, "call": "active"}
{"Target gene": "NFRKB (nuclear factor related to kappaB binding protein)", "rucaparib or vehicle": "Rucaparib", "cell line": "OCI-C5x (clear cell)", "technical replicate": "3", "viability, normalised (%)": 46.8, "call": "active"}
{"Target gene": "NFRKB (nuclear factor related to kappaB binding protein)", "rucaparib or vehicle": "Rucaparib", "cell line": "OCI-P5x (serous)", "technical replicate": "1", "viability, normalised (%)": 48.7, "call": "active"}
{"Target gene": "NFRKB (nuclear factor related to kappaB binding protein)", "rucaparib or vehicle": "Rucaparib", "cell line": "OCI-P5x (serous)", "technical replicate": "2", "viability, normalised (%)": 63, "call": "active"}
{"Target gene": "NFRKB (nuclear factor related to kappaB binding protein)", "rucaparib or vehicle": "Rucaparib", "cell line": "OCI-P5x (serous)", "technical replicate": "3", "viability, normalised (%)": 64.2, "call": "active"}
{"Target gene": "NFRKB (nuclear factor related to kappaB binding protein)", "rucaparib or vehicle": "Vehicle", "cell line": "OCI-C5x (clear cell)", "technical replicate": "1", "viability, normalised (%)": 61.5, "call": "active"}
{"Target gene": "NFRKB (nuclear factor related to kappaB binding protein)", "rucaparib or vehicle": "Vehicle", "cell line": "OCI-C5x (clear cell)", "technical replicate": "2", "viability, normalised (%)": 44.2, "call": "active"}
{"Target gene": "NFRKB (nuclear factor related to kappaB binding protein)", "rucaparib or vehicle": "Vehicle", "cell line": "OCI-C5x (clear cell)", "technical replicate": "3", "viability, normalised (%)": 63.8, "call": "active"}
{"Target gene": "NFRKB (nuclear factor related to kappaB binding protein)", "rucaparib or vehicle": "Vehicle", "cell line": "OCI-P5x (serous)", "technical replicate": "1", "viability, normalised (%)": 61, "call": "active"}
{"Target gene": "NFRKB (nuclear factor related to kappaB binding protein)", "rucaparib or vehicle": "Vehicle", "cell line": "OCI-P5x (serous)", "technical replicate": "2", "viability, normalised (%)": 70.8, "call": "active"}
{"Target gene": "NFRKB (nuclear factor related to kappaB binding protein)", "rucaparib or vehicle": "Vehicle", "cell line": "OCI-P5x (serous)", "technical replicate": "3", "viability, normalised (%)": 89.5, "call": "inactive"}
{"Target gene": "DHFR (dihydrofolate reductase)", "rucaparib or vehicle": "Rucaparib", "cell line": "OCI-C5x (clear cell)", "technical replicate": "1", "viability, normalised (%)": 47.2, "call": "active"}

More reagents follow.
"viability, normalised (%)",call,Target gene,rucaparib or vehicle,cell line,technical replicate
76.1,active,ASNS (asparagine synthetase (glutamine-hydrolyzing)),Rucaparib,OCI-C5x (clear cell),1
59.7,active,ASNS (asparagine synthetase (glutamine-hydrolyzing)),Rucaparib,OCI-C5x (clear cell),2
45,active,ASNS (asparagine synthetase (glutamine-hydrolyzing)),Rucaparib,OCI-C5x (clear cell),3
58,active,ASNS (asparagine synthetase (glutamine-hydrolyzing)),Rucaparib,OCI-P5x (serous),1
70.8,active,ASNS (asparagine synthetase (glutamine-hydrolyzing)),Rucaparib,OCI-P5x (serous),2
74.9,active,ASNS (asparagine synthetase (glutamine-hydrolyzing)),Rucaparib,OCI-P5x (serous),3
39.4,active,ASNS (asparagine synthetase (glutamine-hydrolyzing)),Vehicle,OCI-C5x (clear cell),1
54.2,active,ASNS (asparagine synthetase (glutamine-hydrolyzing)),Vehicle,OCI-C5x (clear cell),2
45.8,active,ASNS (asparagine synthetase (glutamine-hydrolyzing)),Vehicle,OCI-C5x (clear cell),3
68.3,active,ASNS (asparagine synthetase (glutamine-hydrolyzing)),Vehicle,OCI-P5x (serous),1
74.3,active,ASNS (asparagine synthetase (glutamine-hydrolyzing)),Vehicle,OCI-P5x (serous),2
57,active,ASNS (asparagine synthetase (glutamine-hydrolyzing)),Vehicle,OCI-P5x (serous),3
51.9,active,GRK6 (G protein-coupled receptor kinase 6),Rucaparib,OCI-C5x (clear cell),1
65.1,active,GRK6 (G protein-coupled receptor kinase 6),Rucaparib,OCI-C5x (clear cell),2
72.4,active,GRK6 (G protein-coupled receptor kinase 6),Rucaparib,OCI-C5x (clear cell),3
109,inactive,GRK6 (G protein-coupled receptor kinase 6),Rucaparib,OCI-P5x (serous),1
112,inactive,GRK6 (G protein-coupled receptor kinase 6),Rucaparib,OCI-P5x (serous),2
98.8,inactive,GRK6 (G protein-coupled receptor kinase 6),Rucaparib,OCI-P5x (serous),3
51.5,active,GRK6 (G protein-coupled receptor kinase 6),Vehicle,OCI-C5x (clear cell),1
47.9,active,GRK6 (G protein-coupled receptor kinase 6),Vehicle,OCI-C5x (clear cell),2
64.4,active,GRK6 (G protein-coupled receptor kinase 6),Vehicle,OCI-C5x (clear cell),3
99.8,inactive,GRK6 (G protein-coupled receptor kinase 6),Vehicle,OCI-P5x (serous),1
77.1,active,GRK6 (G protein-coupled receptor kinase 6),Vehicle,OCI-P5x (serous),2
96,inactive,GRK6 (G protein-coupled receptor kinase 6),Vehicle,OCI-P5x (serous),3
33.5,active,"ERCC1 (ERCC excision repair 1, endonuclease non-catalytic subunit)",Rucaparib,OCI-C5x (clear cell),1
57.9,active,"ERCC1 (ERCC excision repair 1, endonuclease non-catalytic subunit)",Rucaparib,OCI-C5x (clear cell),1
67.9,active,"ERCC1 (ERCC excision repair 1, endonuclease non-catalytic subunit)",Rucaparib,OCI-C5x (clear cell),2
39.6,active,"ERCC1 (ERCC excision repair 1, endonuclease non-catalytic subunit)",Rucaparib,OCI-C5x (clear cell),2
67.1,active,"ERCC1 (ERCC excision repair 1, endonuclease non-catalytic subunit)",Rucaparib,OCI-C5x (clear cell),3
39.8,active,"ERCC1 (ERCC excision repair 1, endonuclease non-catalytic subunit)",Rucaparib,OCI-C5x (clear cell),3
66,active,"ERCC1 (ERCC excision repair 1, endonuclease non-catalytic subunit)",Rucaparib,OCI-P5x (serous),1
52.7,active,"ERCC1 (ERCC excision repair 1, endonuclease non-catalytic subunit)",Rucaparib,OCI-P5x (serous),1
76.3,active,"ERCC1 (ERCC excision repair 1, endonuclease non-catalytic subunit)",Rucaparib,OCI-P5x (serous),2
46.9,active,"ERCC1 (ERCC excision repair 1, endonuclease non-catalytic subunit)",Rucaparib,OCI-P5x (serous),2
64,active,"ERCC1 (ERCC excision repair 1, endonuclease non-catalytic subunit)",Rucaparib,OCI-P5x (serous),3
59.9,active,"ERCC1 (ERCC excision repair 1, endonuclease non-catalytic subunit)",Rucaparib,OCI-P5x (serous),3
38.8,active,"ERCC1 (ERCC excision repair 1, endonuclease non-catalytic subunit)",Vehicle,OCI-C5x (clear cell),1
43.9,active,"ERCC1 (ERCC excision repair 1, endonuclease non-catalytic subunit)",Vehicle,OCI-C5x (clear cell),1
45.3,active,"ERCC1 (ERCC excision repair 1, endonuclease non-catalytic subunit)",Vehicle,OCI-C5x (clear cell),2
51.9,active,"ERCC1 (ERCC excision repair 1, endonuclease non-catalytic subunit)",Vehicle,OCI-C5x (clear cell),2
38.8,active,"ERCC1 (ERCC excision repair 1, endonuclease non-catalytic subunit)",Vehicle,OCI-C5x (clear cell),3
48.2,active,"ERCC1 (ERCC excision repair 1, endonuclease non-catalytic subunit)",Vehicle,OCI-C5x (clear cell),3
48.1,active,"ERCC1 (ERCC excision repair 1, endonuclease non-catalytic subunit)",Vehicle,OCI-P5x (serous),1
73,active,"ERCC1 (ERCC excision repair 1, endonuclease non-catalytic subunit)",Vehicle,OCI-P5x (serous),1
70.9,active,"ERCC1 (ERCC excision repair 1, endonuclease non-catalytic subunit)",Vehicle,OCI-P5x (serous),2
42.7,active,"ERCC1 (ERCC excision repair 1, endonuclease non-catalytic subunit)",Vehicle,OCI-P5x (serous),2
43.8,active,"ERCC1 (ERCC excision repair 1, endonuclease non-catalytic subunit)",Vehicle,OCI-P5x (serous),3
47.3,active,"ERCC1 (ERCC excision repair 1, endonuclease non-catalytic subunit)",Vehicle,OCI-P5x (serous),3
